The series can be described thus: peptide synthesis. Particulars: late stage modification step.

Substance “[(3-(R)-Methyl-5-allyl-2-tetrahydrofuranyl)sarcosyl]^1 [Thr]^2 cyclosporine” came in with a step yield of 73.6%.
“[O-(N-(2-BOC-aminoethyl)aminosuccinyl)Thr]^2 cyclosporine” registered a step yield of 93%.

These data come from patent US5750413 (dated 1998).
